In publication PMC8385080:
Results are given in words; binding and its absence hold for the method and conditions named. Binding seen in cells or lysates may run through a third protein. Some results given as binding are weak or reduced against the parent protein; the word gives no strength. Blank lines part the entries; values can stand above or below the substance they belong to.

Protein sequences, listed by entry. Tags and fused reporters are not part of them. Residues count along the entry.
UniProt P30530, residues 26-894: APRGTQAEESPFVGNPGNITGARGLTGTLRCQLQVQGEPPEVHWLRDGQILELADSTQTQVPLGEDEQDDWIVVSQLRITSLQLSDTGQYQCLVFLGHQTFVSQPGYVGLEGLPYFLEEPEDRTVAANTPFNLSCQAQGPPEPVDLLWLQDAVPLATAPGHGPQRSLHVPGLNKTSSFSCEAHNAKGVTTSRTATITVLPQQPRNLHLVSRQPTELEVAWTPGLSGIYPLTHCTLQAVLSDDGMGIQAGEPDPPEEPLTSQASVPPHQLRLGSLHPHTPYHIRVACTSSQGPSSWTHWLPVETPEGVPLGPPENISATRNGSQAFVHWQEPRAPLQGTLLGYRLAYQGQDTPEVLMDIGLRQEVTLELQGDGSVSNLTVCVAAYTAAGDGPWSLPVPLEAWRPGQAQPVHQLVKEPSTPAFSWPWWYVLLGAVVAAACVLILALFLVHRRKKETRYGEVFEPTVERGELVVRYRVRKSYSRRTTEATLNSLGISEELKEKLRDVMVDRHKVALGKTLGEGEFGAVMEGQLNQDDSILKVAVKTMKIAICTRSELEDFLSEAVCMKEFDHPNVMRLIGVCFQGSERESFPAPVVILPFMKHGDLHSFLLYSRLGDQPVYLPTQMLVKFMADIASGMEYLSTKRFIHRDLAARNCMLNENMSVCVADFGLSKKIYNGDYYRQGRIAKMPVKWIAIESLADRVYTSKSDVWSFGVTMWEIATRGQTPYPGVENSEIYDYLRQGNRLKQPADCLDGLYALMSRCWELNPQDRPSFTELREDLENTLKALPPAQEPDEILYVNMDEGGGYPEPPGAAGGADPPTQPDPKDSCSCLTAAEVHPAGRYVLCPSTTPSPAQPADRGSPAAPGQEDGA
UniProt Q13873, residues 27-1038: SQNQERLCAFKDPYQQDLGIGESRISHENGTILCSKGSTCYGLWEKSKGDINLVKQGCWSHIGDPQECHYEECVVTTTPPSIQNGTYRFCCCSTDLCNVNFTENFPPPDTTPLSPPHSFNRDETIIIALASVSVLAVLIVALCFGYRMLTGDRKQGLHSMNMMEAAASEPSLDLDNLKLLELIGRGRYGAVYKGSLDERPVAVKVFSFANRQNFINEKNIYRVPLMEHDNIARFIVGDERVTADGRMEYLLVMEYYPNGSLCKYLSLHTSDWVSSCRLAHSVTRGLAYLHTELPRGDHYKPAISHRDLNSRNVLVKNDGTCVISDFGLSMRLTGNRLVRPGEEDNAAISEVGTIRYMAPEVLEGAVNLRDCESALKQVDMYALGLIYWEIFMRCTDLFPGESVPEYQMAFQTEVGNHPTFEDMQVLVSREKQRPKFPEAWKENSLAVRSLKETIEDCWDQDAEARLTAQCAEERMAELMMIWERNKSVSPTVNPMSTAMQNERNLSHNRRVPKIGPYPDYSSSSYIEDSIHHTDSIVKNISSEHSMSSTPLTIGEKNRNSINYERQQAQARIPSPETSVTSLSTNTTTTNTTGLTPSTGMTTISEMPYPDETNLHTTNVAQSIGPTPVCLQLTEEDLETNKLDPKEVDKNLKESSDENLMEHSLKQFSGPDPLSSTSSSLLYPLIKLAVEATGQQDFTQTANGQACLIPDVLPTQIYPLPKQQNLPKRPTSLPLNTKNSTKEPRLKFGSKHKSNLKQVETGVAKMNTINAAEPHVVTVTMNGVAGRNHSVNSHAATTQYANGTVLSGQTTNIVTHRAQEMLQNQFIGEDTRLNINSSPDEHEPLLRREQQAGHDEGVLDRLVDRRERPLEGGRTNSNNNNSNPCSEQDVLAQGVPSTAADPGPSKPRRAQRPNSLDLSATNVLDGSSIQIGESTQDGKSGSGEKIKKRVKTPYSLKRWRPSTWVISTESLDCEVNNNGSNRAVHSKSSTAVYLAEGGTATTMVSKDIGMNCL

Key:
Flag-Axl = Flag-Axl (UniProt P30530); experiment: co-IP; HEK293 cells co-transfected with AXL-FLAG and BMPR2-Myc, lysed 24 h after transfection in IP lysis buffer; IP with FLAG antibody or with BMPR2 antibody, protein A/G agarose, overnight at 4 °C; western blot
BMPR2-Myc = BMPR2-Myc (UniProt Q13873); experiment: as above
[1] = biological target: endogenous BMPR2 (human (endogenous in hPAECs)) (UniProt Q13873); experiment: proximity ligation; Duolink PLA of Axl and BMPR2 in hPAECs, basal (DMSO) and after BMP9/Gas6 stimulation
[2] = biological target: endogenous BMPR2 (human (endogenous in hPAECs)) (UniProt Q13873); experiment: co-IP; hPAEC lysate (IP lysis buffer); IP with BMPR2 antibody, IgG1 as negative control; western blot for Axl; also after 48 h of BMP9/Gas6 stimulation

binding (Flag-Axl): binds
Substance: BMPR2-Myc (from UniProt Q13873 27-1038) (receptor)

binding (BMPR2-Myc): binds
Substance: Flag-Axl (from UniProt P30530 26-894) (receptor)

binding [1]: binds | binding [2]: binds
Substance: endogenous Axl (from UniProt P30530 26-894) (receptor)
